Reference: patent US3932664A, “Substituted phenoxyalkyl quaternary ammonium compounds as antiarrhythemic agents” (priority 1974, dated 1976)
At least one read-out could not be matched to a standard name with certainty.

Tested on: ouabain-induced ventricular tachycardia in dogs
Assay: conversion of ouabain-induced ventricular tachycardia to normal sinus rhythm in anesthetized dogs
Type: in vivo
Details: dog, intravenous, dose giving complete conversion of ouabain-induced tachycardia to normal sinus rhythm
Source text: Ventricular tachycardia is produced in dogs in a method similar to the method of Lucchesi and Hardman (J. Pharmacol. Exptl. Therap., 132, 372, 1961) by the administration of ouabain. In such operations, a dog is anesthetized by the intravenous administration of pentobarbital sodium at a dosage rate of 30 milligrams per kilogram. A femoral artery is cannulated with polyethylene tubing for measurements of blood pressure. A femoral vein is similarly cannulated for administration of ouabain and administration of the test compound. Hypodermic needle electrodes are employed for recording electrocardiograms. In such operations, ouabain is administered intravenously by infusion at a constant rate via the cannulated femoral vein. The infusion rate is 35 micrograms of ouabain per kilogram of animal body weight per hour. Within 1 to 1.5 hours following the start of the infusion, a ventricular tachycardia is seen to develop.
After ventricular tachycardia is observed, a test compound is administered intravenously by administration of varying amounts of a composition comprising 50 milligrams of the test compound as a sterile solution in 10 milliliters of water containing 0.9 percent sodium chloride. Each dose is administered slowly over a period of 15 to 30 seconds. The compound is administered at an initial dosage rate of 0.25 milligram of test compound per kilogram of animal body weight. Blood pressure and electrocardiogram are observed for 5 minutes after administration. When a complete conversion from the arrhythmic condition to normal sinus rhythm is not observed within the 5 minute period, a second dose of 0.50 milligram of the test compound per kilogram is administered by a similar procedure and blood pressure and heartbeat are similarly observed for 5 minutes. […] The animal is then observed and the duration of the period of normal cardiac rhythm produced by administration of the test compound is recorded as the duration of antiarrhythmic activity. […]

C=CC[N+]1(CCOc2c(Br)cc(N)cc2Br)CCCCCC1 [Example 23, [2-(4-amino-2,6-dibromophenoxy)ethyl]-1-allylhexahydroazepinium bromide]
Conversion Dose: 1 Milligrams per Kilogram

CCOC(=O)C[N+](C)(C)CCOc1c(Br)cc(N)cc1Br [Example 2, [2-(4-amino-2,6-dibromophenoxy)ethyl]dimethyl(ethylcarboxymethyl) ammonium bromide]
Conversion Dose: 2 Milligrams per Kilogram

C=CC[N+](C)(C)CCOc1c(Br)cc(N)cc1Br.CS(=O)(=O)[O-] [Example 19, [2-(4-amino-2,6-dibromophenoxy)-ethyl]dimethyl(allyl)ammonium methanesulfonate]
Conversion Dose (methanesulfonate): 2 Milligrams per Kilogram
